The whole screen tested about 52,000 sequences, of which about 210 (0.4%) were called active.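 The calls were made as follows: active = gene whose silencing raises cell survival under the drug, median off-target-corrected z-score across its silencing RNAs 2 or more; inactive = the rest.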 Some of the results follow.

The test is described as follows: Resistance to Poly (ADP-Ribose) Polymerase inhibitor: Gene Identification via Genome-wide siRNA Screen. To be noted: mouse BRCA2 R2336H ES cells, olaparib, CellTiter-Glo viability; active compounds read high. The gist of the method: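 Mouse BRCA2 R2336H ES cells were reverse-transfected with siRNA (20 nM final), treated at 48 h with 500 nM olaparib, and read by CellTiter-Glo after 72 h. Scores: MAD-based z per siRNA, median per gene, seed off-target correction.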
For orientation: Cellular ATP, detected with luciferase, serves as a proxy for viable cell number.
GCCAGUGUUGGUUAUAAAATT against G1p2: the z-score was inactive: 0.0725.
Turning to GGAUGAAUGCAGCUUCCAUTT against Myh14, the z-score is inactive: 0.351.
As for GGAAGCUGUCUUCAAGUCCTT against Phf7, the figure is inactive: 1.36; as for GGUCAAUGGCAUGUUGAUCTT against Mc2r, inactive: -0.394; as for GGGCACAGAGUGUAUCAUCTT against Wap, inactive: 0.426.
As for “GGGUCUUCUUCCUGAGUGUTT against 1190002A17Rik”, the figure is inactive: -0.491; as for “GGAAGUUCAAAUUUGAAUGTT against 5730466H23Rik”, inactive: 1.55; as for GGAUUACGGAUCCAAAGUCTT against Eif2b4, inactive: -2.06.
With GGACUUUCUGGUCUGCCCUTT against Gli, the z-score was inactive: -0.0198.
As for CCAAUGAUGGAGCUGAAGCTT against Ranbp1, the figure is inactive: 0.439.
As for “GCCAUUGUUACUGACUGCCTT against 4931414L13Rik”, the figure is inactive: -0.484; as for GGCAUGAUAAAGAAUGUCATT against Cxcl7, inactive: -1.38.
As for “GGGUUAAUCAUAAAGACUGTT against 9430071P14Rik”, the figure is inactive: -0.443; as for GGUUAUCGUUCAGUUGGUCTT against Nfkb1, inactive: 0.0728.
With GGUGAUCGGCUCUUAGAGATT against Uncx4.1, the z-score is inactive: 0.153.
As for GCUUGGUACUACAAUGCCUTT against Sele, the figure is inactive: -0.649.
Consider GGUACUUCUCAUGGAUAAATT against Vps45, for which the z-score is inactive: -1.05.
As for “CGAAGUGAAAAGUAUGACCTT against 1700108M19Rik”, the figure is inactive: -0.726; as for “CCAAGCGAAUGUCAAAAUATT against A230106N23”, inactive: 0.232.
The figure for GGUGAAGAGCUUCUUGAUCTT against Zfyve27 is inactive: 0.536; for CCCAGCUUUUCAACUUGCUTT against Tmc4 it is inactive: 0.714.
As for GGUGGCAUACACAUUUGAUTT against Mvd, the figure is inactive: -1.25.
Regarding GGAACCUCUUGGACAAAGATT against Cpne5, the z-score was inactive: -2.57.
As to “CCUAAGUGCUCCAUGGUACTT against 2810438M17Rik”, the z-score was inactive: -1.25.
In the case of “GGUCAACAAGUAUAUCAACTT against 0610007A15Rik”, the z-score was inactive: 0.246.
Turning to GGUUCCAAGUCAAAGAGUUTT against Foxl1, the z-score was inactive: -1.74.
As for GGUGUAUGCCAUUGAGACCTT against Metap2, the figure is inactive: 0.19; as for GGACAACAUUAAUGUCAAGTT against Rab3a, inactive: 0.967; as for GGAAAGUUGUAUUUGAUGUTT against Nudt7, inactive: 0.299.
The figure for GGGCUUUUCAGACUGUUUGTT against Nrn1 is inactive: -0.0371; for GGAGUGCUUGAAGUUAUUATT against Zw10 it is inactive: 0.543.
As to GGCCACUUCGUGUUCUUUUTT against Hoxa10, the z-score is inactive: -2.
As for “GGUCUGGAAAACCAGCUUATT against D630039A03Rik”, the figure is inactive: 0.495; as for GCUUCUAAUUGGAGAUUGCTT against Ngfrap1, inactive: 1.44; as for CGAGCUGUCCAAACACUGUTT against Mlf1ip, inactive: 0.1.
The figure for GGAUGUACACAGAAGGCCATT against Sucnr1 is inactive: -0.907.
The figure for GCUGAAGGGACUCUAACCATT against Ihh is inactive: 0.928.
In the case of GGAAGAGGCAGCUUUUGGATT against Impg2, the z-score was inactive: -0.418.
The figure for GGAAGAGCACUUGAGGAUGTT against Bat4 is inactive: 2.17.
Turning to GGAAUUUGAAACUUACGGCTT against Oc90, the z-score is inactive: -0.682.
Consider CCCUAUAGACCAGUGCAAUTT against Cnih, for which the z-score is inactive: 0.407.
On to “GCAAGAUUCAGAGUGCAGCTT against 4932441K18”, for which the z-score is inactive: -0.922.
As to GGCCCUCAAAAAUAAGUUUTT against Hsd3b3, the z-score was inactive: 0.491.
Take CCUGUAUAGGCAGCCUAGATT against BC036313: the z-score is inactive: -2.09.
As for “GGAUGAGGUAUUAACAAGUTT against 2310036O22Rik”, the figure is inactive: -1.25; as for GCUUGGCUAUCAAAACUUCTT against DXImx40e, inactive: 1.58; as for GGAGACCAGGAAGUGUUGATT against Gal, inactive: -0.125.
Turning to “CCGCUGAUGAAGAUAGAGATT against 4931414P19Rik”, the z-score is inactive: -0.326.
For the sequence CGAUCCACUCCCUGAUUCUTT against Gpr151, the z-score is inactive: -0.977.
In the case of CGUACAAACAUAACUGUGGTT against Acp5, the z-score is inactive: 1.23.
Turning to GGCUGUCACUUUAUAGGCATT against Wrnip1, the z-score was inactive: 0.316.
The figure for AACUUCACUAUCUUGUUGGTT against Olfr594 is inactive: 0.493.
As for GGUGAAAGCUGUUAUCGAATT against Il17e, the figure is inactive: 0.276; as for GCACUUCCGGAAAAAGCGATT against Eva1, inactive: -0.0638; as for GCUUCAAUAUCUUCGUUGCTT against Olfr1461, inactive: -0.46.
As for GCCAAUCCUUCAUAGUUUUTT against Kif18a, the z-score was inactive: -0.676.
As for “GGUGAAGGCCUCCAUAUAUTT against A630085K21”, the figure is inactive: -2.34.
On to GGAAUCACGAAGGAGAUUCTT against MGC59529, for which the z-score is inactive: -1.1.
As for GCUUUAGGUCCAUUCGGAGTT against Pkd2l2, the figure is inactive: 0.743.
For CGAGGAAGAGAAUUUCUAUTT against Myc, the z-score is inactive: 0.0795.
On to CGCAAGAGGGAUGAAGGUATT against Pax5, for which the z-score was inactive: -1.1.
The figure for GGAGACGUGUCUGAAAGACTT against Glp2r is inactive: -0.752; for UUAGCCACUCAUUGUUCCATT against Olfr1303 it is inactive: -1.49.
On to GGAAGAAAACAUGGAAGAATT against Usp47, for which the z-score was active: 3.28.
With “GGAAAUCAGCUGUGAAAAATT against 4632423N09Rik”, the z-score is inactive: -1.36.
Turning to GCAAUUAGUGGUUACAAGUTT against Corin, the z-score is inactive: 0.115.
With CCUUCACCUGGCUAUUAGATT against Kif12, the z-score is inactive: 0.61.
As for “AGCCACUUAUGUUAAUAAATT against 2700061N24Rik”, the figure is inactive: -0.228.
As for GGAAGUCUUGGAUUACAGUTT against Srpr, the figure is inactive: -1.06; as for GGACCUGUAUCUUGAAUCCTT against Tex2, inactive: 0.56; as for “GGGCAACUAUCUUCAAAAATT against 4930519N16Rik”, inactive: 0.235.
In the case of GGCCAAAAAACAAUGCCCATT against Sprr4, the z-score is inactive: 0.93.
The figure for GGAAGACCUUGAAUUCCAGTT against Sas is inactive: -0.436; for GGAUCAGAGUAUUUUUGUUTT against Tbx6 it is inactive: -0.959.
The figure for CCUCCAAAAUGUGUCCACUTT against Krt1-10 is inactive: 0.394; for “GGCAUUUCUAGUUUUGUGGTT against 3230401K02Rik” it is inactive: 0.331; for GGUACUUCAUGAGUUGUUCTT against Flt3 it is inactive: 0.615.
As for GGUUUUUUGUAGCAAACAGTT against Phc2, the figure is inactive: 1.34; as for GGACUUUGUGAUCUUUCCATT against Miz1, inactive: -0.819.
Consider GGACUGUGUGUGCAAAGGUTT against Mt3, for which the z-score is inactive: -0.951.
As for CCAGAGCCCAAGCCAAGUUTT against Nanos3, the figure is inactive: -2.45; as for GCCGCUGCACUACAAUUUGTT against Trhde, inactive: 0.39.
As for GGAGAAGGGACCUCAGAACTT against Plrg1, the figure is inactive: -1.82; as for “GGUGUUCCAGUUACCUGAGTT against C630013N10Rik”, inactive: -1.68.
Regarding GCUCCCUUUACAACUCUCATT against Ifna6, the z-score was inactive: 0.175.
As for GGACAACGUGCUCAUUAGUTT against BC021921, the figure is inactive: -0.113; as for GGAACAGUGCUUGUAUCAGTT against Sfrs16, inactive: -0.897.
The figure for GGUCAUUGUGUUAUUACCATT against Prdx4 is inactive: -1.01.
The figure for “GGAUAUGUGUCGCCAUAUATT against 4930590J08Rik” is inactive: -0.629.
Turning to CCCACAGUUGACUGUCUUUTT against Clcnkb, the z-score was inactive: -2.35.
For GGUUUUUCUCAACAAACUCTT against Svs2, the z-score is inactive: -0.434.
The figure for GCCAAUUGAUUAUAAUCGCTT against Riok2 is inactive: 0.785; for GGCUCCAAGGAGAAUUGUUTT against Bbox1 it is inactive: -1.3; for GCCCUGAUGCCAAAUUCCATT against Tde1 it is inactive: 0.015.
“GGCUUCUUUAUGUUUCCUUTT against 2810449C13Rik”: the z-score was inactive: -1.33.
As for GGAACAAGUUUGUGCUUUCTT against Cpd, the figure is inactive: 2.56; as for GGAGAACAUUCAAAAUACGTT against Sgol2, inactive: -0.973.
Turning to GGAGUUAAACAAACAGAGUTT against Psma6, the z-score was inactive: -2.36.
Consider GGACUUGGGUCAUUGUGAGTT against Grpel1, for which the z-score was inactive: -0.0158.
The figure for GGGUGAUGAGCCUAAGCUATT against Scamp5 is inactive: -0.679; for GGACAGCUACUUAUUUCUUTT against V1rd3 it is inactive: -0.339.
Regarding “CCGAAGUGGACGAAUACUUTT against A330102K23Rik”, the z-score is inactive: -1.63.
For GGAUACAAUGCAACUGUCCTT against Kif4, the z-score is inactive: 0.653.
As for “GGGCAAAGACAGUAUUCAATT against B530045E10Rik”, the figure is inactive: 4.22.
The figure for “GGUCUCCAAGACGACAUAGTT against 2610209M04Rik” is inactive: -2.01.

The values above are taken from PubChem BioAssay AID1347423 (Functional Genomics Laboratory (NCATS/FGL), 2020).
